Experimental data as given in PubChem BioAssay AID651640 (Broad Institute, 2012).
Screen size: about 350,000 compounds; about 6,000 (1.7%) were called active. Inconclusive results, whose numbers are uncertain, are shown with a selection of clear calls. Cut-off read from the data, not from the text of the source: active = CPE inhibition above about 20% (passing the limit was not always enough); inconclusive = no clear call, values can overlap the other calls; tested in BHK-21 cells.

Assay: protection of cells from dengue 2 killing – plate reader, single concentration, primary screen (AID 651640);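 note: 0% = median of neutral control wells and 100% = median of positive control wells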
Details: DENV2-infected cells, cytopathic effect rescue, at 9.99 µM, hits give high values

Question: With `C[C@@H]1CCCCO[C@H](CN(C)S(C)(=O)=O)[C@H](C)CN([C@@H](C)CO)C(=O)c2cc(NC(=O)c3ccccc3)ccc2O1` as the compound, how does the CPE inhibition read?
Answer: inconclusive: 42.4%

Question: Which CPE inhibition does the source give for `COc1ccc(NC(=O)Nc2ccc3c(c2)C(=O)N([C@@H](C)CO)C[C@H](C)[C@H](CN(C)C)O3)cc1` here?
Answer: inactive: -5.06%

Question: For `CC(C)CCN1C(=O)CSCC1(C)C(=O)Nc1ccc2c(c1)OCCO2` (stereo not drawn), which CPE inhibition is on record?
Answer: inactive: -12.3%

Question: For `CSc1cccc(CN2CCCC(CNC(=O)c3ccco3)C2)c1` (stereo not drawn), which CPE inhibition is on record?
Answer: inactive: 5.05%

Question: With `Cc1ccc(C(=O)OCCn2cc(C#N)c(=O)[nH]c2=O)cc1` as the compound, how does the CPE inhibition read?
Answer: inactive: 0.0425%

Question: With `O=C(NCc1cccnc1)c1ccc(COc2ccc3c(c2)CCC3)o1` as the compound, how does the CPE inhibition read?
Answer: inactive: 3.53%

Question: For `CNC[C@@H]1Oc2ncc(C#Cc3cccc(F)c3)cc2C(=O)N([C@H](C)CO)C[C@@H]1C`, which CPE inhibition is on record?
Answer: inconclusive: 30.3%

Question: Which CPE inhibition does the source give for `CCC(=O)Nc1ccc2c(c1)OC[C@@H](C)N(C(=O)Nc1ccccc1F)C[C@@H](C)[C@H](OC)CN(C)C2=O` here?
Answer: active: 22.2%

Question: Which CPE inhibition does the source give for `COc1ccc(CN(C)C[C@H]2Oc3ccc(NS(=O)(=O)c4c(C)noc4C)cc3C(=O)N([C@H](C)CO)C[C@H]2C)cc1` here?
Answer: active: 28.7%

Question: With `CCOCCCn1c(=N)c(S(=O)(=O)c2ccccc2)cc2c(=O)n3cc(C)ccc3nc21` as the compound, how does the CPE inhibition read?
Answer: inactive: -5.53%

Question: Which CPE inhibition does the source give for `CC(=O)Nc1ccc(C(=O)OCc2ccc(F)cc2)cc1` here?
Answer: inactive: 6%

Question: Which CPE inhibition does the source give for `Cc1ccc(-c2ccc3c(c2)O[C@@H](CN(C)C(=O)Nc2ccc(F)cc2)[C@@H](C)CN([C@@H](C)CO)S3(=O)=O)cc1` here?
Answer: active: 30.4%

Question: With `C[C@@H]1CCCCO[C@H](CN(C)S(=O)(=O)c2cn(C)cn2)[C@H](C)CN([C@@H](C)CO)C(=O)c2cc(NC(=O)Cc3ccccc3)ccc2O1` as the compound, how does the CPE inhibition read?
Answer: inactive: -6.52%

Question: With `CN(C(=S)NC(=O)c1ccccc1)C1CCCCC1` as the compound, how does the CPE inhibition read?
Answer: inconclusive: 20.7%

Question: Which CPE inhibition does the source give for `C[C@@H]1CN([C@H](C)CO)S(=O)(=O)c2ccc(C3=CCCC3)cc2O[C@H]1CN(C)C(=O)Nc1ccc2c(c1)OCO2` here?
Answer: active: 21.4%

Question: For `COc1ccc2c3c([nH]c2c1)[C@H](CO)N(Cc1ccccc1F)CC31CN(C(=O)C2CCCC2)C1`, which CPE inhibition is on record?
Answer: active: 23.9%

Question: With `O=C(CSc1nc2nn(-c3ccccc3)c(=O)c-2c2n1CCCCC2)Nc1ccc(F)cc1F` as the compound, how does the CPE inhibition read?
Answer: inconclusive: 23.4%

Question: With `C[C@@H]1CCCCO[C@@H](CN(C)S(=O)(=O)c2cccs2)[C@H](C)CN([C@@H](C)CO)C(=O)c2cc(NC(=O)c3ccncc3)ccc2O1` as the compound, how does the CPE inhibition read?
Answer: inconclusive: 42.2%

Question: Which CPE inhibition does the source give for `CN1CCN(C(=O)C[C@@H]2CC[C@H]3[C@@H](COC[C@@H](O)CN3CC3CCCCC3)O2)CC1` here?
Answer: inactive: -10.5%

Question: For `COc1ccc(N=C2NC(=O)/C(=C\c3ccco3)S2)cc1`, which CPE inhibition is on record?
Answer: inactive: -3.02%

Question: For `N/C(=N\OC(=O)c1ccc(Cl)cc1Cl)c1ccncc1`, which CPE inhibition is on record?
Answer: inconclusive: 24.6%

Question: Which CPE inhibition does the source give for `O=C(C[C@H]1CC[C@H]2[C@@H](COC[C@@H](O)CN2C(=O)Nc2ccc(F)cc2)O1)NC1CCC1` here?
Answer: inconclusive: 21.1%

Question: With `C[C@H]1CN([C@@H](C)CO)C(=O)c2cccc(NC(=O)CCCCCC(=O)Nc3ccccc3N)c2O[C@H]1CN(C)Cc1ccc(Oc2ccccc2)cc1` as the compound, how does the CPE inhibition read?
Answer: inconclusive: 41.6%

Question: With `CN(C(=O)c1ccc(NC(=O)Cc2ccc(NC(=O)C3CCN(C(=O)C4CCCCC4)CC3)cc2)cc1)C1CCCC1` as the compound, how does the CPE inhibition read?
Answer: active: 85.7%

Question: With `CCCCn1c(N)c(N(CCOC)C(=O)c2ccc(Br)o2)c(=O)[nH]c1=O` as the compound, how does the CPE inhibition read?
Answer: inconclusive: 48.7%

Question: For `C[C@H](CO)N1C[C@H](C)[C@@H](CN(C)C(=O)C2CCC2)Oc2cc(-c3cncnc3)ccc2S1(=O)=O`, which CPE inhibition is on record?
Answer: active: 28.7%

Question: For `CN1c2ccccc2C(=O)/C(=C\Nc2ccc(F)cc2F)S1(=O)=O`, which CPE inhibition is on record?
Answer: inconclusive: 21.4%

Question: For `C[C@@H]1CN([C@@H](C)CO)C(=O)c2cc(NS(=O)(=O)c3ccc(F)cc3)ccc2O[C@H]1CN(C)S(=O)(=O)c1cccs1`, which CPE inhibition is on record?
Answer: active: 46.2%

Question: For `CCCNC(=O)N(C)C[C@@H]1Oc2ncc(-c3ccccc3)cc2C(=O)N([C@H](C)CO)C[C@@H]1C`, which CPE inhibition is on record?
Answer: inconclusive: 29.1%

Question: For `CCOC(=O)N1CCN(C(C(=O)NC2CCCC2)C(C)C)CC1` (stereo not drawn), which CPE inhibition is on record?
Answer: active: 30%

Question: Which CPE inhibition does the source give for `COc1ccc(OC)c(S(=O)(=O)NC(=O)C2(C)CCN2C(=O)Cc2ccc(Cl)cc2Cl)c1` (stereo not drawn) here?
Answer: inconclusive: 33.3%

Question: With `CC1(C)CCC/C(=C\c2ccccc2)C1=O` as the compound, how does the CPE inhibition read?
Answer: inconclusive: 49.1%

Question: Which CPE inhibition does the source give for `O=C(CN(C(=O)CCC(=O)Nc1nccs1)c1ccccc1F)NCc1ccccc1` here?
Answer: inconclusive: 39.8%

Question: For `COc1ccc(NC(=O)Nc2ccc3c(c2)C(=O)N([C@H](C)CO)C[C@H](C)[C@@H](CN(C)C(=O)Nc2ccc(C(F)(F)F)cc2)O3)cc1`, which CPE inhibition is on record?
Answer: inconclusive: 24.1%

Question: With `Cc1cccc(C)c1NC(=O)C1(C)CCC(=O)N1C1CC1` (stereo not drawn) as the compound, how does the CPE inhibition read?
Answer: inconclusive: 33.1%

Question: Which CPE inhibition does the source give for `Cc1ccc(NC(=O)c2nc[nH]c2C(=O)N[C@@H](C)c2ccccc2)cc1` here?
Answer: inconclusive: 63.1%

Question: Which CPE inhibition does the source give for `Cc1cc(C)cc(NC(=O)COC(=O)Cc2ccccc2F)c1` here?
Answer: inconclusive: 21.4%

Question: For `COc1ccc(-c2ccc([C@@H]3[C@H]4CN(C(=O)C5CC5)CC(=O)N4[C@H]3CO)cc2)cc1`, which CPE inhibition is on record?
Answer: active: 30.9%

Question: With `O=C(C[C@@H]1CC[C@@H]2[C@H](COC[C@@H](O)CN2Cc2cccc(F)c2)O1)NCCc1ccncc1` as the compound, how does the CPE inhibition read?
Answer: inconclusive: 39.6%

Question: Which CPE inhibition does the source give for `N#C[C@H]1[C@@H](c2ccc(C3=CCCC3)cc2)[C@@H](CO)N1C(=O)NC1CCCC1` here?
Answer: inconclusive: 24.7%

Question: Which CPE inhibition does the source give for `C[C@@H]1CCCCO[C@H](CN(C)CC2CC2)[C@H](C)CN([C@H](C)CO)C(=O)c2cc(NS(=O)(=O)c3ccc(F)cc3)ccc2O1` here?
Answer: active: 29.1%

Question: With `CC1(c2nnnn2-c2ccc3c(c2)OCCO3)CCC(=O)N1C1CCN(Cc2ccccc2)CC1` (stereo not drawn) as the compound, how does the CPE inhibition read?
Answer: inconclusive: 61.7%

Question: With `Cc1ccc(NC(=O)n2ncc3c(C)cccc32)c(C)c1` as the compound, how does the CPE inhibition read?
Answer: inconclusive: 33.8%

Question: Which CPE inhibition does the source give for `COc1ccc(OC)c(N(C(=O)c2snc(C(N)=O)c2N)C(C(=O)NCc2ccccc2)c2ccc(O)cc2)c1` (stereo not drawn) here?
Answer: inconclusive: 21.5%

Question: With `Cc1nn(Cc2ccc(C(=O)NC3CCCCC3)o2)c(C)c1Br` as the compound, how does the CPE inhibition read?
Answer: inconclusive: 30.5%

Question: For `O=C(COc1ccc(C2SCCS2)cc1)NNC(=O)C(Cl)Cl`, which CPE inhibition is on record?
Answer: inconclusive: 30.3%

Question: For `COc1cccc(-c2ccc3n(c2=O)C[C@@H]2[C@@H](CO)[C@H](C(=O)N(C)C)[C@H]3N2Cc2cncnc2)c1`, which CPE inhibition is on record?
Answer: inconclusive: 67.6%

Question: With `COc1ccc(C(=O)C(OP(=O)(OC)OC)c2ccccc2OC)cc1` (stereo not drawn) as the compound, how does the CPE inhibition read?
Answer: inconclusive: 84.6%

Question: For `COCC#Cc1ccc([C@H]2[C@@H](CO)N3CCCCN(Cc4ccncc4)C[C@H]23)cc1`, which CPE inhibition is on record?
Answer: inconclusive: 23.6%

Question: For `COc1cc(C(C)=O)ccc1OCC(O)CN1CCN(c2cc(C)cc(C)c2)CC1` (stereo not drawn), which CPE inhibition is on record?
Answer: inconclusive: 23.1%

Question: Which CPE inhibition does the source give for `O=C(NCCCc1ccncc1)C1CCC(=O)N(CCc2cccc(F)c2)C1` (stereo not drawn) here?
Answer: inconclusive: 31%

Question: Which CPE inhibition does the source give for `COc1cc(OC)c2c(-c3cccc(-c4ccc(C#N)cc4)c3)cc(=O)oc2c1` here?
Answer: inactive: -1.47%

Question: For `COc1ccc(OC)c(C2C(C(=O)c3ccc(C)o3)=C(O)C(=O)N2c2cc(C)on2)c1` (stereo not drawn), which CPE inhibition is on record?
Answer: inconclusive: 54.8%

Question: For `COc1ccc(S(=O)(=O)Nc2ccc3c(c2)CC(=O)N([C@H](C)CO)C[C@@H](C)[C@H](CN(C)Cc2ccc(C(F)(F)F)cc2)O3)cc1`, which CPE inhibition is on record?
Answer: inactive: 18.3%

Question: With `O=C(NNc1nc2c(F)cccc2s1)c1cc(=O)c2ccccc2o1` as the compound, how does the CPE inhibition read?
Answer: inconclusive: 35.4%

Question: Which CPE inhibition does the source give for `CCCCN(C(=O)c1ccc2c(c1)NC(=O)CS2)c1ccccc1` here?
Answer: active: 93.7%

Question: For `CC(C)NC(=O)Nc1cccc2c1O[C@H](CN(C)Cc1ccncc1)[C@H](C)CN([C@H](C)CO)C2=O`, which CPE inhibition is on record?
Answer: inconclusive: 21.3%

Question: For `c1nc(N2CCCCC2)c2[nH]cnc2n1`, which CPE inhibition is on record?
Answer: inactive: -7.6%

Question: With `O=C(Nc1ccccc1)N1CCCCN2[C@H](C1)[C@@H](c1ccc(-c3ccccc3F)cc1)[C@@H]2CO` as the compound, how does the CPE inhibition read?
Answer: active: 33%

Question: With `O=C(CN(Cc1ccc(Br)cc1)S(=O)(=O)c1ccccc1)NCc1cccnc1` as the compound, how does the CPE inhibition read?
Answer: inconclusive: 37.1%

Question: With `Nc1[nH]c(=O)nc(Nc2ccccc2)c1N=O` as the compound, how does the CPE inhibition read?
Answer: inconclusive: 21%

Question: For `Cc1ccc2c(C)c(C(=O)N3CCN(Cc4ccccn4)CC3)oc2c1C`, which CPE inhibition is on record?
Answer: inconclusive: 28%

Question: For `CC1([N+](=O)[O-])COC(c2cccc3ccccc23)OC1` (stereo not drawn), which CPE inhibition is on record?
Answer: inactive: 4.41%

Question: For `O=C(Nc1nnc(C2=COCCO2)o1)c1ccc(Cl)cc1`, which CPE inhibition is on record?
Answer: inactive: -6.18%

Question: Which CPE inhibition does the source give for `S=C(NCCCN1CCOCC1)N1CCN(c2nc(-c3ccc(Cl)cc3)cs2)CC1` here?
Answer: inconclusive: 21.7%

Question: Which CPE inhibition does the source give for `COc1ccccc1CNS(=O)(=O)c1ccc2c(c1)N(C(C)=O)CC(C)S2` (stereo not drawn) here?
Answer: inconclusive: 59.1%

Question: With `CN(C)C(=O)c1ccc(-c2ccccc2[C@H]2[C@@H](C#N)N(C(=O)C3CCCC3)[C@H]2CO)cc1` as the compound, how does the CPE inhibition read?
Answer: inconclusive: 24.9%

Question: For `O=C(Nc1ccccc1N1CCCCC1)C1=COCCO1`, which CPE inhibition is on record?
Answer: inconclusive: 27.1%

Question: With `C[C@@H]1CN([C@@H](C)CO)C(=O)Cc2cc(NC(=O)Cn3cnnn3)ccc2O[C@@H]1CN(C)C(=O)Nc1ccccc1` as the compound, how does the CPE inhibition read?
Answer: inconclusive: 52.7%

Question: For `O=C1CCCC(=O)C1C1c2ccccc2CCN1C(=O)CCl` (stereo not drawn), which CPE inhibition is on record?
Answer: inconclusive: 22.7%

Question: With `CCCNC(=O)N(C)C[C@H]1Oc2cc(-c3ccncc3)ccc2S(=O)(=O)N([C@@H](C)CO)C[C@H]1C` as the compound, how does the CPE inhibition read?
Answer: inactive: 13.7%

Question: With `CCCC#Cc1ccc([C@H]2[C@@H](CO)N3CCCCN(Cc4cccnc4)C[C@@H]23)cc1` as the compound, how does the CPE inhibition read?
Answer: active: 33.5%

Question: Which CPE inhibition does the source give for `CO[C@@H]1CN(C)C(=O)c2cc(NC(=O)Nc3ccc(F)cc3)ccc2OC[C@@H](C)N(C(=O)c2cnccn2)C[C@H]1C` here?
Answer: inactive: -6.09%
